Laboratory results: US20250115642A1 (priority 2022, published 2025)

Assay: general procedure: Fmoc solid-phase peptide synthesis; Rink Amide MBHA resin (0.075 mmol/g, 100 to 200 mesh, 1% DVB crosslinking); HBTU/DIPEA
Conditions: whole synthesis, liquid chromatography, scale of the general procedure 50 mg resin

GKCSTRGRKSSRRKK (PEPTIDE HAVING ANTIBACTERIAL, …ON OR TISSUE …ON)
final purity (method not given): 98.2%

Plain letter strings leave the end groups untold.
